Reference: the supplement of paper PMC12067093, “Discovery and optimisation of a covalent ligand for TRIM25 and its application to targeted protein ubiquitination” (Chemical Science, 2025)
Some of the results follow.

Protein sequences, listed by entry. Tags and fused reporters are not part of them. Lines headed by an entry give the natural chain unless they say otherwise; changes in a name come on top.
UniProt P08238, whole entry, looked up: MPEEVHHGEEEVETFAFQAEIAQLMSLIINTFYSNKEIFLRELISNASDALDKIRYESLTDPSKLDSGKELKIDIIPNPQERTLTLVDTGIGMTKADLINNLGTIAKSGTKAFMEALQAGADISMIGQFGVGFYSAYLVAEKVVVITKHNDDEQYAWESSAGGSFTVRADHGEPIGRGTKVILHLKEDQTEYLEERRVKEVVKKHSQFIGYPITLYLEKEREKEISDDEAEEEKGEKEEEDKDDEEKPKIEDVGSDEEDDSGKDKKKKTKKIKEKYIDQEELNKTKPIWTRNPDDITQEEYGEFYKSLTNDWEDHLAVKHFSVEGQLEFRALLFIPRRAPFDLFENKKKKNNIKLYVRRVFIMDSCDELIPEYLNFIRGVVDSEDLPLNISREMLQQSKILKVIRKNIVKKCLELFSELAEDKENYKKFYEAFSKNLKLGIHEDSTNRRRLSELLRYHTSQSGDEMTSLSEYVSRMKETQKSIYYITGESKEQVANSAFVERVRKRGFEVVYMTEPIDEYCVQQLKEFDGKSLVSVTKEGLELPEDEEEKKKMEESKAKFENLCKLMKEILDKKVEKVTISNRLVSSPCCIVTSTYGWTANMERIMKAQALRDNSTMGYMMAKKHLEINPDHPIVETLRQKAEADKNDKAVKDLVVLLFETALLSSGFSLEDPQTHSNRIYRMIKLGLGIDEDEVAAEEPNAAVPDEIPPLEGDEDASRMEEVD
UniProt Q969F9: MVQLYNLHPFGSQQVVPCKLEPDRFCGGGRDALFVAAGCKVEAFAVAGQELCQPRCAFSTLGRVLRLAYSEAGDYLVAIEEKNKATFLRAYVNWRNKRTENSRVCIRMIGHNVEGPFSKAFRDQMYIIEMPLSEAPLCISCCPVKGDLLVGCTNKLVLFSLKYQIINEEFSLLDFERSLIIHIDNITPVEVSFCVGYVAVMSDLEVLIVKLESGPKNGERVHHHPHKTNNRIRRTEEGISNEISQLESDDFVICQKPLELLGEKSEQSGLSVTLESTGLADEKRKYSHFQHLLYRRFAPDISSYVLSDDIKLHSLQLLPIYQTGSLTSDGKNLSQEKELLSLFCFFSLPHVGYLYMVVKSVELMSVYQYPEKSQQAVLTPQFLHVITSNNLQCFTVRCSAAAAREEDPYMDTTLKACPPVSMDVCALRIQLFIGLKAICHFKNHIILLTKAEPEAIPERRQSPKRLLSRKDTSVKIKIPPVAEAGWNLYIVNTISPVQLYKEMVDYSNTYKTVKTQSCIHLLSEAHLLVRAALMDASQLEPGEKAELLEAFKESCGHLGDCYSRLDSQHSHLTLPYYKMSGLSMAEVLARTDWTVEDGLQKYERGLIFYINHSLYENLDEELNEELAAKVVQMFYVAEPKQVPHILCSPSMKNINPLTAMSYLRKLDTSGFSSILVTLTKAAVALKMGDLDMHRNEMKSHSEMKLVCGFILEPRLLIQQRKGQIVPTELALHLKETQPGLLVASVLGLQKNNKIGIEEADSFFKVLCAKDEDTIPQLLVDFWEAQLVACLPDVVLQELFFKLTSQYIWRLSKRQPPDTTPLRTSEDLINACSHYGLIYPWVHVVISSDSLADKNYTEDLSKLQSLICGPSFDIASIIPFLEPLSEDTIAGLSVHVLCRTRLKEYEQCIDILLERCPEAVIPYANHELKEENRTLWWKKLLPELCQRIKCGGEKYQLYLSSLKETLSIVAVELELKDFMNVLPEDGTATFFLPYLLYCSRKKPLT
UniProt Q92598: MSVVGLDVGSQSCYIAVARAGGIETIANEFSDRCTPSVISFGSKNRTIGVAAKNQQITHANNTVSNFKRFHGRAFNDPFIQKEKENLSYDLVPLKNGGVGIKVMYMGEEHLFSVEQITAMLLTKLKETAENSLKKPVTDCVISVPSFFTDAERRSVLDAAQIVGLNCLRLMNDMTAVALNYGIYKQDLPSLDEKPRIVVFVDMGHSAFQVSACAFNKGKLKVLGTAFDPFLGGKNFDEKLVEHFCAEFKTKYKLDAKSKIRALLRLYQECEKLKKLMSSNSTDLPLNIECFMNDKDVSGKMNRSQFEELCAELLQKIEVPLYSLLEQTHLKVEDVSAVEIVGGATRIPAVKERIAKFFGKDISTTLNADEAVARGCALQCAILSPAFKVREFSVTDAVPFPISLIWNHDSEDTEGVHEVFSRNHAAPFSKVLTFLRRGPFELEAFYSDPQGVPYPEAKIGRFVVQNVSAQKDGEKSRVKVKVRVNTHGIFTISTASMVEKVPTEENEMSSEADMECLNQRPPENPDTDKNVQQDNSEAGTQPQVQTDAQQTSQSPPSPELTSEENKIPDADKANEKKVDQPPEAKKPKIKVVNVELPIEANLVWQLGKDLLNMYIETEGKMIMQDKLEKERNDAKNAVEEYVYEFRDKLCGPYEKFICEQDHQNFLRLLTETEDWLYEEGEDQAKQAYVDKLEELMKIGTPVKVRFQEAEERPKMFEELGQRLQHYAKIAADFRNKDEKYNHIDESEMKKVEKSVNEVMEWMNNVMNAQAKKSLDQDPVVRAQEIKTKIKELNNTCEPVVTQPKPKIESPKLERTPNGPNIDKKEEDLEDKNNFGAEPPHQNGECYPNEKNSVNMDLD
UniProt Q8NBQ5: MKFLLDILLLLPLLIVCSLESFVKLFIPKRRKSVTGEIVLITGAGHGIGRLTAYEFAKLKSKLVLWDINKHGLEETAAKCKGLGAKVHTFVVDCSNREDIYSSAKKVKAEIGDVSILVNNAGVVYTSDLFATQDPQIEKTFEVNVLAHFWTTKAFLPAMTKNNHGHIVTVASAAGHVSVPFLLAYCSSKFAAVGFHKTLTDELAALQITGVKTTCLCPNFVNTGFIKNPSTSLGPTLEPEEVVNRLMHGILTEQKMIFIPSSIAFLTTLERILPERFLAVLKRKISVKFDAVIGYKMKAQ
UniProt Q00839, whole entry, looked up: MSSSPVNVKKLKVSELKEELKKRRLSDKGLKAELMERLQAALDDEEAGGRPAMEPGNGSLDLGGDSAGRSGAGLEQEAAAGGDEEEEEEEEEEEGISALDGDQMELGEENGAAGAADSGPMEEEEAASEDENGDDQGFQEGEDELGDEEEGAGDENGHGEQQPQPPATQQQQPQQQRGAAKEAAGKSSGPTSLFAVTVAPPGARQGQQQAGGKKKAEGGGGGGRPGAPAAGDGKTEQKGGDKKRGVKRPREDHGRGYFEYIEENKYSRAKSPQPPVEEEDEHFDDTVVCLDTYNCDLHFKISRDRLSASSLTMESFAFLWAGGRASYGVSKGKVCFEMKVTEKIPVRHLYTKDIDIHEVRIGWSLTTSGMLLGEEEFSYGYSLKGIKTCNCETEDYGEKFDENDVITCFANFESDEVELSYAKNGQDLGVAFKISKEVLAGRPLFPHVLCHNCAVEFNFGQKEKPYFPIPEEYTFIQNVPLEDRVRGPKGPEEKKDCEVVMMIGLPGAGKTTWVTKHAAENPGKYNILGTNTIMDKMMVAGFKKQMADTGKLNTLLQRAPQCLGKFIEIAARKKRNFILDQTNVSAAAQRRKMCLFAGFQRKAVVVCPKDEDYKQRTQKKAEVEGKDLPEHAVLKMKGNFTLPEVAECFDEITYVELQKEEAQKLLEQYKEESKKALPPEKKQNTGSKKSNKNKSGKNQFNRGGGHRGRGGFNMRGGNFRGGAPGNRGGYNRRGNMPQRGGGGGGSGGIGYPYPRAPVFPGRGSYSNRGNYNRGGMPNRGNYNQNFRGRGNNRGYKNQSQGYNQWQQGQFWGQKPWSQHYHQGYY
UniProt P28845: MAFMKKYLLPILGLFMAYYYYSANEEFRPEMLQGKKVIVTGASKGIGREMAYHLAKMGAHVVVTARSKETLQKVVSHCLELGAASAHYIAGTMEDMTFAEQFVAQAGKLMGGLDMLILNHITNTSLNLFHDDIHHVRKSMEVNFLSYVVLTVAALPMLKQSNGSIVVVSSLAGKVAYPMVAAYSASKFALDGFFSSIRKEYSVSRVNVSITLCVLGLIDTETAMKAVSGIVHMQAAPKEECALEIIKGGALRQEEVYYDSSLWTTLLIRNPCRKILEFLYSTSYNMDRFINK
UniProt P34932: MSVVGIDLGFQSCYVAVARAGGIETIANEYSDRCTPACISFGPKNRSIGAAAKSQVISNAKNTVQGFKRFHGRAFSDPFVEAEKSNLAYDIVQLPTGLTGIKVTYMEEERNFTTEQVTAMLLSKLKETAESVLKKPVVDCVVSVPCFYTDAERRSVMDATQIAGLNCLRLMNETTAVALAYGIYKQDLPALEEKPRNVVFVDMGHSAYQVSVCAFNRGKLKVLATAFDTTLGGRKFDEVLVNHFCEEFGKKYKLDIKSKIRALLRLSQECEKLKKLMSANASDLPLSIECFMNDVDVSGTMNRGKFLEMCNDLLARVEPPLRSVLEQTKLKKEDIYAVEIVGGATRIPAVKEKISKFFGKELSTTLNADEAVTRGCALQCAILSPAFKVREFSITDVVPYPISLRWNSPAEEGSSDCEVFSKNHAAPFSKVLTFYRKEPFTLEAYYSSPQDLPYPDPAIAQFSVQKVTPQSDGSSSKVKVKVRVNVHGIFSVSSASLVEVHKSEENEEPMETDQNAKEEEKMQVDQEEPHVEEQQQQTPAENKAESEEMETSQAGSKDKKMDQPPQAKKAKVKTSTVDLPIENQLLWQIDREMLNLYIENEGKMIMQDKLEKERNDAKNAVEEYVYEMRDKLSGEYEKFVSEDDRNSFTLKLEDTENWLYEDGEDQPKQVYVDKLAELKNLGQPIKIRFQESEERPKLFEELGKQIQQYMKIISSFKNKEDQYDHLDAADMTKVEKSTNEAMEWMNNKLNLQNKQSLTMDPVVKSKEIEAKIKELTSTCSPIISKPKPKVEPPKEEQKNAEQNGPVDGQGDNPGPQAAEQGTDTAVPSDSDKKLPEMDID
UniProt Q00613: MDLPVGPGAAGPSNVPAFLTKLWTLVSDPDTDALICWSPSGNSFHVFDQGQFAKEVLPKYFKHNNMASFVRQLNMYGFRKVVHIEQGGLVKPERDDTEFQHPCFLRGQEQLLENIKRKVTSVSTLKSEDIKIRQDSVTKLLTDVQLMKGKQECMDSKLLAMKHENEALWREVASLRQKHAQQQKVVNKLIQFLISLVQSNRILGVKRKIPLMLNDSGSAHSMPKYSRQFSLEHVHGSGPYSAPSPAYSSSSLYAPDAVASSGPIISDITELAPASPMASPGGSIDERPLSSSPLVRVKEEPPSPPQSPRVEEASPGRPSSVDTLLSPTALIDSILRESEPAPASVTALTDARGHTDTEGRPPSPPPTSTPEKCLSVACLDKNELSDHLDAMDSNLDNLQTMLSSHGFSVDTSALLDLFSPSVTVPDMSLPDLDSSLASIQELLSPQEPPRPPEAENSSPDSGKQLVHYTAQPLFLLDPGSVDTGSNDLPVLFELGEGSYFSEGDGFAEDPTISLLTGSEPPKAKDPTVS
UniProt Q1KMD3: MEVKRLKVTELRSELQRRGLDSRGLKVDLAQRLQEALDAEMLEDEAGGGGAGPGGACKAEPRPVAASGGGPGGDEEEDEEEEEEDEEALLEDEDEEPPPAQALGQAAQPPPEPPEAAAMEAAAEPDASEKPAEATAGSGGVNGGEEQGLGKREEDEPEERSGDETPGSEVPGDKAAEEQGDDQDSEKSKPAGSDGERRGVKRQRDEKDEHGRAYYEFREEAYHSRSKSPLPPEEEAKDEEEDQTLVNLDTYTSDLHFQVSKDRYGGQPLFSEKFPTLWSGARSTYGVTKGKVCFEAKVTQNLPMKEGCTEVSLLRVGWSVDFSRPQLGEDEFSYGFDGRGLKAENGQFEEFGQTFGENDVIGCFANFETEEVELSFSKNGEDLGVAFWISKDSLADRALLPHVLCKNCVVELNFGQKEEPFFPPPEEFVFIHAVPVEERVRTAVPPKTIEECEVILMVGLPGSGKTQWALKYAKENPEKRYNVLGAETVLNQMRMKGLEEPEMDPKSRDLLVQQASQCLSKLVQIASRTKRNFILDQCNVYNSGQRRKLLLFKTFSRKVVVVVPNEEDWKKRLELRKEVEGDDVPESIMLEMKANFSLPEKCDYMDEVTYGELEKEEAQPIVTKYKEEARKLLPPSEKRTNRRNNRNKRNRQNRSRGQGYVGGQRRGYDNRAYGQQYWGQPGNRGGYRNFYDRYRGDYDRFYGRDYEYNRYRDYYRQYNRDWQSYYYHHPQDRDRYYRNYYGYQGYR
UniProt P30519: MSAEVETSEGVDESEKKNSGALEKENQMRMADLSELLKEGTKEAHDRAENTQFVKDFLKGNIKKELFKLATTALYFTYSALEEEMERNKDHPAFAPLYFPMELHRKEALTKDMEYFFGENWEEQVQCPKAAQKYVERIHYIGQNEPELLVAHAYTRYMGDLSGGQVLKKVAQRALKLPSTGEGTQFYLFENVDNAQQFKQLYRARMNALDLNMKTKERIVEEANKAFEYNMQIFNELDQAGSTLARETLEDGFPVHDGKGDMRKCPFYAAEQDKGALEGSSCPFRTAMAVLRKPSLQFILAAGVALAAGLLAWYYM

Compound: Cc1cc(ccc1-c1ccccc1)C(=O)N1CCCN(CC1)C(=O)CCl [compound 10]
Assay: probe-labelled cysteine peptide fold change vs DMSO (competition) (log2 fold change); higher = less target engagement (more negative = stronger competition)
Details: THP-1, incubation time: 4 h
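Also: competitive profiling in live THP-1 cells: cysteine peptides tagged with an iodoacetamide desthiobiotin (IA-DTB) probe, intensity after compound treatment relative to DMSO-treated cells.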

Target	probe-labelled cysteine peptide fold change (10 µM)	probe-labelled cysteine peptide fold change (50 µM)
HSP90AB1_P08238_412_CLELFSELAEDK (UniProt P08238)	0.16	0.151
HTATSF1_O43719_328_HPDGVASVSFRDPEEADYCIQTLDGR (UniProt O43719)	0.17	0.118
HTT_P42858_777_GATAILCGTLICSILSR (UniProt P42858)	-0.228	-0.284
HSP90AA1_P07900_529_HGLEVIYMIEPIDEYCVQQLK (UniProt P07900)	-0.0361	0.15
HSP90AB1_P08238_521_KRGFEVVYMTEPIDEYCVQQLK (UniProt P08238)	-0.0905	-0.276
HPS3_Q969F9_254_TEEGISNEISQLESDDFVICQK (UniProt Q969F9)	-0.36	-0.219
HSPH1_Q92598_167_SVLDAAQIVGLNCLR (UniProt Q92598)	0.109	0.284
HNRNPA2B1_P22626_50_LTDCVVMR (UniProt P22626)	-0.0119	0.0662
HOMEZ_Q8IX15_110_CGISWSSEEIEETR (UniProt Q8IX15)	0.0803	0.166
HSPH1_Q92598_796_ELNNTCEPVVTQPKPK (UniProt Q92598)	0.108	-0.8
HPS3_Q969F9_647_QVPHILCSPSMK (UniProt Q969F9)	0.0421	-0.246
HSD17B11_Q8NBQ5_217_TTCLCPNFVNTGFIK (UniProt Q8NBQ5)	0.0142	0.158
HNRNPU_Q00839_607_AVVVCPKDEDYK (UniProt Q00839)	-0.128	-0.4
HNRNPU_Q00839_594_KMCLFAGFQR (UniProt Q00839)	-0.234	-0.822
HSD17B11_Q8NBQ5_94_VHTFVVDCSNREDIYSSAK (UniProt Q8NBQ5)	-0.0284	0.121
HNRNPA3_P51991_85_GFGFVTYSCVEEVDAAMCARPHK (UniProt P51991)	-0.0643	-0.239
HNRNPA0_Q13151_49_CFGFVTYSNVEEADAAMAASPHAVDGNTVELK (UniProt Q13151)	0.356	0.056
HSD11B1_P28845_241_EECALEIIK (UniProt P28845)	-0.15	0.0682
HSPA4_P34932_779_ELTSTCSPIISK (UniProt P34932)	0.23	0.271

Target	probe-labelled cysteine peptide fold change (10 µM)	probe-labelled cysteine peptide fold change (50 µM)
HNRNPA1_P09651_175_YHTVNGHNCEVR (UniProt P09651)	-0.0593	0.0843
HSD17B4_P51659_425_CEAVVADVLDK (UniProt P51659)	0.0224	0.443
HSF1_Q00613_103_DDTEFQHPCFLR (UniProt Q00613)	-0.18	-0.0287
HSPA9_P38646_66_GAVVGIDLGTTNSCVAVMEGK (UniProt P38646)	-0.141	0.0641
HNRNPU_Q00839_335_VCFEMK (UniProt Q00839)	0.0568	0.0504
HNRNPA0_Q13151_7_MENSQLCK (UniProt Q13151)	0.0576	-0.305
HNRNPK_P61978_184_LFQECCPHSTDR (UniProt P61978)	-0.00384	-0.203
HNRNPH2_P55795_22_GLPWSCSADEVMR (UniProt P55795)	0.118	0.249
HSPA5_P11021_41_KEDVGTVVGIDLGTTYSCVGVFK (UniProt P11021)	0.209	0.548
HNRNPUL2_Q1KMD3_602_CDYMDEVTYGELEK (UniProt Q1KMD3)	-0.1	0.00664
HSD17B10_Q99714_214_VCNFLASQVPFPSR (UniProt Q99714)	0.102	0.0901
HMOX2_P30519_127_DMEYFFGENWEEQVQCPK (UniProt P30519)	-0.0262	0.237
HSPD1_P10809_237_CEFQDAYVLLSEKK (UniProt P10809)	-0.239	-0.452
HNRNPL_P14866_581_LCFSTAQHAS (UniProt P14866)	0.0791	-0.0199
HNRNPUL2_Q1KMD3_308_EGCTEVSLLR (UniProt Q1KMD3)	0.0493	-0.324
HNRNPU_Q00839_594_MCLFAGFQR (UniProt Q00839)	-0.0812	-0.0999
HSPA4_P34932_245_FDEVLVNHFCEEFGK (UniProt P34932)	-0.0483	0.238
HMMR_O75330_242_LLEYIEEISCASDQVEK (UniProt O75330)	0.208	-0.0825
HNRNPUL2_Q1KMD3_538_NFILDQCNVYNSGQR (UniProt Q1KMD3)	-0.109	0.293
